Experimental data reported in US9221875B2, “Amphiphilic peptides for treatment of keratitis” (Agency for Science, Technology and Research, priority 2013, dated 2015).

What was measured:
[1] = test system: 5 microorganisms tested (S. epidermidis, S. aureus, E. coli, P. aeruginosa, C. albicans); conditions: rabbit red blood cells
[2] = test system: 5 microorganisms tested (S. epidermidis, S. aureus, E. coli, P. aeruginosa, C. albicans); format: cell-based; conditions: rat red blood cells
Procedure: Red blood cells suspension incubated with PBS was used as negative control.

CC[C@@H](C)[C@@H](N)C(=O)N[C@H](CCCNC(=N)N)C(=O)N[C@@H](C(=O)N[C@H](CCCCN)C(=O)N[C@@H](C(=O)N[C@H](CCCNC(=N)N)C(=O)N[C@@H](C(=O)N[C@H](CCCCN)C(N)=O)[C@H](C)CC)[C@H](C)CC)[C@H](C)CC [IK8-all D, irikirik-NH2] (H-[dI][dR][dI][dK][dI][dR][dI][dK]-NH2; N-terminus assumed) was tested, and the “SI, selectivity index (HC10 / GM)” value [1] was 407.0.
For CC[C@H](C)[C@H](N)C(=O)N[C@@H](CCCNC(=N)N)C(=O)N[C@H](C(=O)N[C@@H](CCCCN)C(=O)N[C@H](C(=O)N[C@@H](CCCNC(=N)N)C(=O)N[C@H](C(=O)N[C@@H](CCCCN)C(N)=O)[C@@H](C)CC)[C@@H](C)CC)[C@@H](C)CC [(IRIK)2-NH2] (H-IRIKIRIK-NH2; N-terminus assumed), the “SI, selectivity index (HC10 / GM)” value [1] was 85.5 and the “SI, selectivity index (HC10 / GM)” value [2] was 44.8.
In the case of CC[C@H](C)[C@H](N)C(=O)N[C@@H](CCCNC(=N)N)C(=O)N[C@H](C(=O)N[C@@H](CCCCN)C(=O)N[C@H](C(=O)N[C@@H](CCCNC(=N)N)C(=O)N[C@H](C(=O)N[C@@H](CCCCN)C(=O)N[C@H](C(=O)N[C@@H](CCCNC(=N)N)C(=O)N[C@H](C(=O)N[C@@H](CCCCN)C(N)=O)C(C)C)[C@@H](C)CC)C(C)C)[C@@H](C)CC)C(C)C [(IRVK)3-NH2] (H-IRVKIRVKIRVK-NH2; N-terminus assumed), the “SI, selectivity index (HC10 / GM)” value [1] is reported as >>2.6 and the “SI, selectivity index (HC10 / GM)” value [2] is reported as 26.4.
With CC[C@H](C)[C@H](N)C(=O)N[C@@H](CCCNC(=N)N)C(=O)N[C@H](C(=O)N[C@H](CCCCN)C(=O)N[C@H](C(=O)N[C@H](CCCNC(=N)N)C(=O)N[C@H](C(=O)N[C@@H](CCCCN)C(N)=O)[C@@H](C)CC)[C@@H](C)CC)[C@@H](C)CC [IK8-2D, IRIkIrIK-NH2] (H-IRI[dK]I[dR]IK-NH2; N-terminus assumed) the “SI, selectivity index (HC10 / GM)” value [1] was 128.0.

Like-named read-outs stand apart in the source and are kept apart here. Square brackets hold non-standard residues; d marks the D form. Peptide text beside a SMILES is read from it.
